Assay results published in paper PMC11638158.
Results are given in words; binding and its absence hold for the method and conditions named. Binding seen in cells or lysates may run through a third protein. Some results given as binding are weak or reduced against the parent protein; the word gives no strength. Tags and fused reporters may be left off the sequences shown.

Molecular target: T1, RYBP-FLAG (RING1 and YY1 binding protein) (UniProt Q8CCI5)
T1 sequence: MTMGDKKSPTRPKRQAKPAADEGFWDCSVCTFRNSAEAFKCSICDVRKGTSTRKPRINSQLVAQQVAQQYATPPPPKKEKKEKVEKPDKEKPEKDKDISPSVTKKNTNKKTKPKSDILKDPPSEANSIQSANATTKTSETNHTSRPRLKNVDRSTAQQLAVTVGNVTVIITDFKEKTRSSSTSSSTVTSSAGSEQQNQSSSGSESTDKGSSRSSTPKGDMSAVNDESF
Assay: co-IP; HEK293 cells co-transfected with prk7-Brachyury and pcDNA3.1-Rybp-FLAG; lysate in EB buffer (50 mM HEPES, 150 mM NaCl, 0.5 mM MgCl2, 0.1% NP40, 5% glycerol, 0.5 mM DTT, MG132, benzonase); anti-FLAG-M2 magnetic beads, 4°C, 90 min; elution with 3xFLAG peptide; blot with anti-BRACHYURY and anti-FLAG

binding: binds
B1: BRACHYURY (protein, UniProt P20293 1-436)
chain: MSSPGTESAGKSLQYRVDHLLSAVESELQAGSEKGDPTERELRVGLEESELWLRFKELTNEMIVTKNGRRMFPVLKVNVSGLDPNAMYSFLLDFVTADNHRWKYVNGEWVPGGKPEPQAPSCVYIHPDSPNFGAHWMKAPVSFSKVKLTNKLNGGGQIMLNSLHKYEPRIHIVRVGGPQRMITSHCFPETQFIAVTAYQNEEITALKIKYNPFAKAFLDAKERNDHKDVMEEPGDCQQPGYSQWGWLVPGAGTLCPPASSHPQFGGSLSLPSTHGCERYPALRNHRSSPYPSPYAHRNSSPTYADNSSACLSMLQSHDNWSSLGVPGHTSMLPVSHNASPPTGSSQYPSLWSVSNGTITPGSQTAGVSNGLGAQFFRGSPAHYTPLTHTVSAATSSSSGSPMYEGAATVTDISDSQYDTAQSLLIASWTPVSPPSM
